Measurements published in patent publication US20240117326A1.
No constants are given. Whether binding was seen depends on the method and setting. Binding seen in cells or lysates may run through a third protein. Some entries that bind do so weakly or less than the wild type.

Chains of the proteins cited; added tags and fusions are not shown. Lines headed by an entry give the natural chain unless they say otherwise; changes in a name come on top.
UniProt P16267: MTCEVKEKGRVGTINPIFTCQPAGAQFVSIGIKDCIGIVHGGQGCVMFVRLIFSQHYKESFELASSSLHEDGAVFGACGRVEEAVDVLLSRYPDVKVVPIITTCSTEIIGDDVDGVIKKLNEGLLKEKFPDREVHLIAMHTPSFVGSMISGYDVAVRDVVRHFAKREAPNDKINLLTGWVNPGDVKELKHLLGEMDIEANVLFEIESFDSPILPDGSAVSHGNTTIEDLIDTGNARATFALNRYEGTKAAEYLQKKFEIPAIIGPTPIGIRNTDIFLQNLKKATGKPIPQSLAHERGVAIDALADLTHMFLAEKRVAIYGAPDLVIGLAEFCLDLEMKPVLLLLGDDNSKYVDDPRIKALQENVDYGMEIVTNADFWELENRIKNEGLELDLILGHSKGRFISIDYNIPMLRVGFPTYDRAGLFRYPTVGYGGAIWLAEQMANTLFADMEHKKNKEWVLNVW
UniProt P16266: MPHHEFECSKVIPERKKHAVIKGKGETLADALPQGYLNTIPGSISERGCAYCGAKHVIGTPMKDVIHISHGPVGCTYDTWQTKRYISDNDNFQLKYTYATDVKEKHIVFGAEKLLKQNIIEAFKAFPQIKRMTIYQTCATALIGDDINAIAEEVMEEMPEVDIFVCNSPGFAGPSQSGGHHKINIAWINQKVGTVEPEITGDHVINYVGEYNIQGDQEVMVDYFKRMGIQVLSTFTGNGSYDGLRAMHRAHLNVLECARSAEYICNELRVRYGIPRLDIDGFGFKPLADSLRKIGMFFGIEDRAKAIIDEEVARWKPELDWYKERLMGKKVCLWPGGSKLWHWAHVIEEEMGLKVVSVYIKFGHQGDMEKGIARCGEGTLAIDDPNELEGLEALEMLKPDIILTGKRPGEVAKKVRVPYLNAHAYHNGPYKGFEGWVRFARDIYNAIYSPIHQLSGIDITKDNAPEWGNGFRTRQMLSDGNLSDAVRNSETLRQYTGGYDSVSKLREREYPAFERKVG

Legend:
[1] = target: MPP-processed MTP-CoxIV::TwinStrep::AvAnfG fusion polypeptide (in SL93) (Azotobacter vinelandii); test: co-purification on Strep-tactin XT column through TwinStrep::AnfG (SL93), anaerobic; anti-HA Western blot and LC-MS of the eluate
[2] = target: MPP-processed MTP-CoxIV::Twin Strep::AnfK fusion polypeptide (gene of SN195; in SL34, SL37, SL43) (Azotobacter vinelandii) (UniProt P16267); test: LC-MS and targeted MRM of the eluate of the TwinStrep::AnfK purification (SL37, anaerobic)
[3] = target: MPP-processed MTP-CoxIV::Twin Strep::AnfK fusion polypeptide (gene of SN195; in SL34, SL37, SL43) (Azotobacter vinelandii) (UniProt P16267); test: co-purification on Strep-tactin XT column through TwinStrep::AnfK (SL37), anaerobic; anti-HA Western blot of the eluate

## MPP-processed MTP-FAγ51::HA::AnfD fusion polypeptide (gene of SN161; in SL26, SL34, SL43, SL93) (from UniProt P16266 1-518) (enzyme)
[1]
  binding: binds

## MPP-processed MTP-FAγ51::AnfD::HA fusion polypeptide (gene of SN81; in SL37) (from UniProt P16266 1-518) (enzyme)
[2]
  binding: binds
[3]
  binding: binds
